Source: patent US20190322762A1
Numbering of substitutions follows the chain as printed. Results are given in words; binding and its absence hold for the method and conditions named. Some results given as binding are weak or reduced against the parent protein; the word gives no strength.

By UniProt entry, the sequences of proteins in these tests, tags left out. Where a name states a change or a piece, a line headed by the entry shows the natural chain unless it says otherwise. Chains listed by the source or under a name are the forms on record and can include a tag or linker.
UniProt P06733: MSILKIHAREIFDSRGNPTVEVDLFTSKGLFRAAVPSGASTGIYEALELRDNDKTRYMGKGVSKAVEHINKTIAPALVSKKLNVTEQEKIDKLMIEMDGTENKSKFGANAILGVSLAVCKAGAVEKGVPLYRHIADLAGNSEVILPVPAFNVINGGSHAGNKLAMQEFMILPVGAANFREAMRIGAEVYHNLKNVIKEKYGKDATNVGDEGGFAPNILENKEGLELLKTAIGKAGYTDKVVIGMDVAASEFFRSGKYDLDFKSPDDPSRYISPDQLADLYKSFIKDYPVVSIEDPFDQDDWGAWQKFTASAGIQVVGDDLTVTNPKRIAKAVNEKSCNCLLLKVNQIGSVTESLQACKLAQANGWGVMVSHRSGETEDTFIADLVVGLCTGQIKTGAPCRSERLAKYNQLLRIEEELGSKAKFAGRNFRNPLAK
ENO1 mutant S310 to alanine (P06733, form named): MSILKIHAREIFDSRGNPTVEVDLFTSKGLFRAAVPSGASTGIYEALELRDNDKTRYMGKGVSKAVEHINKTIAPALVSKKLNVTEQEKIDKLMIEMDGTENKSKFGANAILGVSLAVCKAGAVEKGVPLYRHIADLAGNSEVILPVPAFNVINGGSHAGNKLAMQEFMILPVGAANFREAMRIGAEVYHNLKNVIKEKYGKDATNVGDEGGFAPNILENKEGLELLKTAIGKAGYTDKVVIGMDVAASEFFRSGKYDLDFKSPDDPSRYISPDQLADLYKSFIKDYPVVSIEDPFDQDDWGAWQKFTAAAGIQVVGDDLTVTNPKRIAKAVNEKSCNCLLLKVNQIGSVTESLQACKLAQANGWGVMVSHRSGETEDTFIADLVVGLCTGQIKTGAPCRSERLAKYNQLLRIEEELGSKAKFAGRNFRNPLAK
ENO1 mutant G312 to alanine (P06733, form named): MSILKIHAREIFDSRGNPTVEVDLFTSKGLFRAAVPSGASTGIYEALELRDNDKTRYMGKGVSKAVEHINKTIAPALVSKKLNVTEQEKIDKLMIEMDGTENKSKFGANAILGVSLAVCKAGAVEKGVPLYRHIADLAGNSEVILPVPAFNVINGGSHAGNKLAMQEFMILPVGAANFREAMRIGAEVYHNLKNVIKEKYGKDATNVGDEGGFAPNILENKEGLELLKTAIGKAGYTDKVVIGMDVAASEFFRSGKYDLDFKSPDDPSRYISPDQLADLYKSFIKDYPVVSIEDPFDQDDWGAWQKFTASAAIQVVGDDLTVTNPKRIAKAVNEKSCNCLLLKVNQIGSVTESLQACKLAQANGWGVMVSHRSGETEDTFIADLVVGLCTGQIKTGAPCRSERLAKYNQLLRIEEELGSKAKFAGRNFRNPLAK
ENO1 mutant Q298 to alanine (P06733, form named): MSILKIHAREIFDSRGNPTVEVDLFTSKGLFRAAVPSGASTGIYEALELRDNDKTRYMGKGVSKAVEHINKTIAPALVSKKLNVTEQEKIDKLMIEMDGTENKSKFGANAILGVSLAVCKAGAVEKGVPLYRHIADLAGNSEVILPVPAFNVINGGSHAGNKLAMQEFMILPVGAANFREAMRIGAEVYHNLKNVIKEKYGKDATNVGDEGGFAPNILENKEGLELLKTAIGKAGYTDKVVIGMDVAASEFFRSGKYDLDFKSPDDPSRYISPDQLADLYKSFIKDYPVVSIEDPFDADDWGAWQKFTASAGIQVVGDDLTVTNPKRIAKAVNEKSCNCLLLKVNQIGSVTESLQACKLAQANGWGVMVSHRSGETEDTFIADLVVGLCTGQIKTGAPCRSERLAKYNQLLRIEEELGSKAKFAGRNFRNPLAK
ENO1 mutant D299 to alanine (P06733, form named): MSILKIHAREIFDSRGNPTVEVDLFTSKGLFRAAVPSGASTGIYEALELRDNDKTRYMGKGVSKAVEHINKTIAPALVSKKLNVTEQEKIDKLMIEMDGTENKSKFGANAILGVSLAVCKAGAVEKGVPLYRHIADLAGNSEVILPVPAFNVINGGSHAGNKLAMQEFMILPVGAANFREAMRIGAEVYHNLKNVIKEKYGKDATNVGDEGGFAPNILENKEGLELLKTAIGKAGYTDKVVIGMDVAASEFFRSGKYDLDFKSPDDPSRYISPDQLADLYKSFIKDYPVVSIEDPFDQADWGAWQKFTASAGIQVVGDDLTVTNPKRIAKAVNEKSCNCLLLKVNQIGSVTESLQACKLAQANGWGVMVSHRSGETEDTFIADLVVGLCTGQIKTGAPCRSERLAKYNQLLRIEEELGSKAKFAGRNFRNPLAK

Columns and labels:
[1] = target: ENO1 mutant S310 to alanine (human) (UniProt P06733); assay: ELISA, ENO1 mutant A310 coated, EN10.5 mAb titrated
[2] = target: ENO1 mutant G312 to alanine (human) (UniProt P06733); assay: ELISA, ENO1 mutant A312 coated, EN10.5 mAb titrated
[3] = target: human ENO1 protein (human) (UniProt P06733); assay: ELISA, human ENO1 coated on the plate, antibody titrated
[4] = target: ENO1 mutant Q298 to alanine (human) (UniProt P06733); assay: ELISA, ENO1 mutant A298 coated, EN10.5 mAb titrated
[5] = target: ENO1 mutant D299 to alanine (human) (UniProt P06733); assay: ELISA, mutant protein coated, antibody in 2-fold dilutions, OD450
[6] = target: ENO1 mutant Q298 to alanine (human) (UniProt P06733); assay: as above
[7] = target: ENO1 mutant S310 to alanine (human) (UniProt P06733); assay: as above
[8] = target: ENO1 mutant G312 to alanine (human) (UniProt P06733); assay: as above
[9] = target: ENO1 mutant D299 to alanine (human) (UniProt P06733); assay: ELISA, ENO1 mutant A299 coated, EN10.5 mAb titrated
[10] = target: human ENO1 protein (human) (UniProt P06733); assay: SPR (BIAcore), antibody on the chip, two-fold dilutions of ENO1 injected (0.3125 nM to 40 nM per paragraph 183)
[11] = target: human ENO1 protein (human) (UniProt P06733); assay: SPR, BIAcore 2000

Measured: binding

B1: EN10.5 (antibody, V domains shown)
VH: QVQLVQSGAEVKKPGASVKVSCKASGYTFTSSVMNWVRQAPGQGLEWMGYINPYNDGTKYNEKFKGRVTMTTDTSTSTAYMELRSLRSDDTAVYYCAREGFYYGNFDNWGQGTLVTVSS
VL: DIQMTQSPSSLSASVGDRVTITCRASENIYSYLTWYQQKPGKAPKLLIYNAKTLPEGVPSRFSGSGSGTDFTLTISSLQPEDFATYYCQHHYGTPYTFGQGTKLEIKR
not listed: [10] | [11]
binds: all other assays above

B2: EN10.4 (antibody, V domains shown)
VH: B1 VH with S32A
VL: B1 VL
binds: [3]

B3: hum EN10 mAb IMGT (antibody, V domains shown)
VH: B1 VH with S32C
VL: B1 VL
binds: [10] | [3] | [11]
